In publication doi:10.1101/2025.02.01.636027:
These are yes or no findings as the source states them, for the method shown. Binding seen in cells or lysates may run through a third protein. Some entries that bind do so weakly or less than the wild type.

Biological target: T1, TNI-cEYFP (Arabidopsis thaliana) (UniProt Q8L6Y1)
T1 sequence: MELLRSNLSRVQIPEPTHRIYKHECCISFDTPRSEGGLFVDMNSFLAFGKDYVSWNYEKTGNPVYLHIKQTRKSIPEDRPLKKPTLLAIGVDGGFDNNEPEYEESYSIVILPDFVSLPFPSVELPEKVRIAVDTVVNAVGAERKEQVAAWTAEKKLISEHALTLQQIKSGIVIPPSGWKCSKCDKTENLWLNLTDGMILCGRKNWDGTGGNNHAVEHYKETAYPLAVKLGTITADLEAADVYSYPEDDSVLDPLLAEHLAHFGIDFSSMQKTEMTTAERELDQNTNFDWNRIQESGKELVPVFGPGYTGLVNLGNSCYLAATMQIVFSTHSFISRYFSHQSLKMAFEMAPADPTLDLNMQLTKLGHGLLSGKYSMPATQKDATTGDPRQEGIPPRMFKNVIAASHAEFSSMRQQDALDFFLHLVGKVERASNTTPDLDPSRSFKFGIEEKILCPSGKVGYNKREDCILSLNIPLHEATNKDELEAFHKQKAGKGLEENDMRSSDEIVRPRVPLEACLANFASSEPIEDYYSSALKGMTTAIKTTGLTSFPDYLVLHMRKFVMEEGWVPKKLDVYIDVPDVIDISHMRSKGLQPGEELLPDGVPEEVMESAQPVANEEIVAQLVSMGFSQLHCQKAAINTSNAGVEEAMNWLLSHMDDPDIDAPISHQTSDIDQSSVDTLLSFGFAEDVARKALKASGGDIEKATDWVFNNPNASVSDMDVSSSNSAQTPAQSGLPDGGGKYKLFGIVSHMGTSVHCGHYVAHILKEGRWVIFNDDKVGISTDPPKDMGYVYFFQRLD
Assay: split reporter

B1: ULT2-nEYFP (protein, UniProt Q8S8I2 1-228)
chain: MERECGSKELFSKEELQEISGVHVGDDYVEVMCGCTSHRYGDAVARLKIFSDGELQITCQCTPACLEDKLTPAAFEKHSERETSRNWRNNVWVFIEGDKVPLSKTVLLRYYNKALKNSNVSKVIHRDEFVGCSTCGKERRFRLRSRGECRMHHDAIAEPNWKCCDYPYDKITCEEEEERGSRKVFRGCTRSPSCKGCTSCVCFGCKLCRFSDCNCQTCLDFTTNAKPI
Question: B1 was tested. Which binding did it give?
Answer: binds
